In paper PMC3197679:
Read-outs that look alike come from different tables or passages of the source. These are yes or no findings as the source states them, for the method shown. Binding seen in cells or lysates may run through a third protein. Some entries that bind do so weakly or less than the wild type. Each block holds one molecule with its values, some of them ahead of it.

Chains of the proteins cited; added tags and fusions are not shown.
UniProt Q13614: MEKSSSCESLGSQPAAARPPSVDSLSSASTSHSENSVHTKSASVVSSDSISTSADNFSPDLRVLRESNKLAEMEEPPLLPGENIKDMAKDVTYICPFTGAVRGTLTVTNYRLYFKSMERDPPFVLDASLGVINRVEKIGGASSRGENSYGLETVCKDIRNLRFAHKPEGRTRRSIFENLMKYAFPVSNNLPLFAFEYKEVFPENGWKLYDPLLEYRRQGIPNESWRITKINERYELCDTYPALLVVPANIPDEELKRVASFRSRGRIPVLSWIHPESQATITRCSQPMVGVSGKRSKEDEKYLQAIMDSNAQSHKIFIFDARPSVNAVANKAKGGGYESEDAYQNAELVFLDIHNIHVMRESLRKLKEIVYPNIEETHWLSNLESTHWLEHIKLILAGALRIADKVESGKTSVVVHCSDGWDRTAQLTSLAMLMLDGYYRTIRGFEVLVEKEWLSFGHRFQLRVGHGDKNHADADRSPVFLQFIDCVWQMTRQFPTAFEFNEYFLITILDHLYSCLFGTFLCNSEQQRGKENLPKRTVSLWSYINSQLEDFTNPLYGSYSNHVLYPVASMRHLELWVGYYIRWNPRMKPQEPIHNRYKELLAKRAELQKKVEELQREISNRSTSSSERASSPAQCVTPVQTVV
UniProt Q62696: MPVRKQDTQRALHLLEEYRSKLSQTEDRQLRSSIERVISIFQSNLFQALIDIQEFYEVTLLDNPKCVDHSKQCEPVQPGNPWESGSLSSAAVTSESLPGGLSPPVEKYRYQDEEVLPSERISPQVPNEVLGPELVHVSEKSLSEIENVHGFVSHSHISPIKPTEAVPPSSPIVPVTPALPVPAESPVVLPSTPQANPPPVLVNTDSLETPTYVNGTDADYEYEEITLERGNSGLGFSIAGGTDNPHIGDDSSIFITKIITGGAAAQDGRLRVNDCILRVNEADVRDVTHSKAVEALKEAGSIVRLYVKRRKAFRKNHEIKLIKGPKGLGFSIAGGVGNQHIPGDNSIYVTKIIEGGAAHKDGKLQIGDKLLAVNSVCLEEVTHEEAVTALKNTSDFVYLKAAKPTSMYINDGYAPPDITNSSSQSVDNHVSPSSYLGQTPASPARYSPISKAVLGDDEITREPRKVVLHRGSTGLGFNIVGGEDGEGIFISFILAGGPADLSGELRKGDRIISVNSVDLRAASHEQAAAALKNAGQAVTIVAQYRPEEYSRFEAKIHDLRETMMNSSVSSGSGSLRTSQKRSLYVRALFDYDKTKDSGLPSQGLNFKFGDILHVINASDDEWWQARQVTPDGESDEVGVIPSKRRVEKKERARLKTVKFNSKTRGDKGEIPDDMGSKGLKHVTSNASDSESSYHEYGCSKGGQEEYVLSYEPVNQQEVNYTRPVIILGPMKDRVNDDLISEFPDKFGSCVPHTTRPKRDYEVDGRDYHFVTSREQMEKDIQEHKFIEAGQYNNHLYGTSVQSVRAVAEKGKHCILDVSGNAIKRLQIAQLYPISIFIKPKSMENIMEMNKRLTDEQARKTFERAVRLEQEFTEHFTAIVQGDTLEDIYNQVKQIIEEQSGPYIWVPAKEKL

Legend:
[1] = target: GST-MTMR2 (Myotubularin-related 2) (not stated (human or mouse cDNA cloned)) (UniProt Q13614); assay: pull-down; GST fusion protein or GST immobilised on glutathione-Sepharose beads, incubated 4 h at 4°C with lysates of mouse brain or isolated rat Schwann cells (1% NP-40, 50 mM Tris pH 7.4, 10% glycerol, 100 mM NaCl, 10 mM NaF, 1 mM Na-vanadate); three washes with 0.5% NP-40; immunoblotting; only the target purified
[2] = target: GST-MTMR2 (Myotubularin-related 2) (not stated (human or mouse cDNA cloned)) (UniProt Q13614); assay: as above; remark: listed apart in the source

binding [1]: binds
Molecule: Dlg1 (rat, from isolated Schwann cell lysate) (from UniProt Q62696 1-911)

binding [2]: no binding
B1: Fig4 (mouse, from brain lysate) (enzyme, UniProt Q91WF7 1-907)
chain: MPTAAAPIISSVQKLVLYETRARYFLVGSNHAETKYRVLKIDRTEPKDLVVIDDRHVYTQQEVRELLGRLDLGNRTKMSQKGSSGLFRAVSAFGVVGFVRFLEGYYIVLITKRRKMADIGGHAIYKIEDTSMIYIPNDSVRISHPDEARYLRIFQNVDLSSNFYFSYSYDLSHSLQYNLTVLRMPLEMLKSETSKACQESFDIFEDEGLITQGGSGVFGISSEPYMKYVWNGELLDIIKNTVHRDWLLYIIHGFCGQSKLLIYGRPVYVTLIARRSSRFAGTRFLKRGANCEGDVANEVETEQILCDASVMSFTAGSYSSYVQVRGSVPLFWSQDISTMMPKPPITLDQADPFAHVAALHFDQMLQRFGSPIIILNLVKEREKRKHERILSEELVAAVTYLNQFLPPEHTIVYIPWDMAKYTKSKLCNVLDRLNVIAESVVKKTGFFVNRPDSYCSILRPDEKWNELGGHVIPTGRLQTGILRTNCVDCLDRTNTAQFMVGKCALAYQLYSLGLIDKPNLQFDTDAVRLFEELYEDHGDTLSLQYGGSQLVHRVKTYRKIAPWTQHSKDIMQTLSRYYSNAFSDADRQDSINLFLGVFHPTEGKPHLWELPTDFYLHHKNTMSLLPPRRSYTYWWTPEVVKHLPLPYDEVICAANLKKLMVKKFHRWEEEIDIHNEFFRPYELSSFDDTFCLAMTSSARDFMPKTVGIDPSPFTVRKPDETGKSVLGNKNTREEAVLQRKTAASAPPPPSEEAVSSSSEDDSGTDREDEGSISQRSTPVKMTDTGDSAKATENVVQPMKEVYGVSLSSSLSEEDHSIYARFVQLGQSQHKQDRGNQQLCSRCSDGVIKLTPISAFSQDNIYEVQPPRVDRKSTEIFQAHIQASQGIMQPLGKEDTAMYREYIRNRYL
